Values from PubChem BioAssay AID1259424 (University of Nebraska Medical Center, 2018).

- Assay: 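Seek colon cancer survival genes behaving like KSR1, using a six-gene signature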 (primary screen)
- Cell system: human HCT116 colon cancer cells
- Knock-down reagent: siRNA pool against human genes, 50 nM
- Measurement: 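Six signature mRNAs by branched-DNA multiplex assay, scaled to two housekeeping genes and non-targeting median, log2; matched to mean KSR1 knockdown profile by Pearson correlation and euclidean distance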
- Direction: mean correlation with KSR1 profile and KSR1 correlation: higher = expression change more like KSR1 knockdown; mean distance from KSR1 profile: higher = expression change less like KSR1 knockdown
The deposit covers about 14,000 reagents; shown is a part drawn at random. 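Higher correlation or smaller distance means closer resemblance to KSR1 loss; control wells, including KSR1 knockdowns, recur on many plates.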 Not given: the time to read-out.

no.	gene knocked down	mean correlation with KSR1 profile	mean distance from KSR1 profile	KSR1 correlation, replicate 1	KSR1 correlation, replicate 2	KSR1 correlation, replicate 3
1	GJB3	-0.397	1.82	-0.395	-0.36	-0.408
2	OPLAH	-0.268	2.82	-0.602	-0.435	-0.127
3	IGHG3	-0.156	2.23	-0.115	-0.257	-0.168
4	RBL1	0.361	2.57	0.399	0.381	0.323
5	SLC13A4	-0.38	2.15	-0.701	-0.141	-0.225
6	TSPAN14	0.733	1.5	0.662	0.639	0.471
7	RAB25	0.284	1.28	0.00496	0.175	0.419
8	ZHX3	-0.692	1.45	-0.409	-0.84	-0.625
9	SCN11A	-0.5	2.81	-0.528	-0.432	-0.64
10	BIN2	-0.362	2.16	-0.208	-0.337	-0.33
11	NHERF4	0.369	1.35	0.466	0.487	0.228
12	NRBF2	-0.292	2	-0.303	-0.32	-0.274
13	ARHGAP19	0.442	1.99	0.361	0.258	0.541
14	MTHFSD	0.676	1.06	0.786	0.65	0.162
15	ANO8	-0.585	6.98	-0.462	-0.262	-0.575
16	PHF7	-0.334	1.91	-0.393	-0.348	-0.0203
17	GDF11	-0.15	2.15	-0.13	-0.0614	-0.229
18	CLEC5A	-0.308	1.88	0.095	-0.635	-0.397
19	VPS9D1	-0.275	3.99	-0.247	-0.239	-0.156
20	MAP3K8	0.394	2.34	0.451	0.428	0.136

2 entries from above, showing only “KSR1 correlation, replicate 3”.
BIN2: -0.33
NHERF4: 0.228
